# This is one part of the list.
# By UniProt entry, the sequences of proteins in these tests, tags left out. Where a name states a change or a piece, a line headed by the entry shows the natural chain unless it says otherwise.
# UniProt Q96NL6: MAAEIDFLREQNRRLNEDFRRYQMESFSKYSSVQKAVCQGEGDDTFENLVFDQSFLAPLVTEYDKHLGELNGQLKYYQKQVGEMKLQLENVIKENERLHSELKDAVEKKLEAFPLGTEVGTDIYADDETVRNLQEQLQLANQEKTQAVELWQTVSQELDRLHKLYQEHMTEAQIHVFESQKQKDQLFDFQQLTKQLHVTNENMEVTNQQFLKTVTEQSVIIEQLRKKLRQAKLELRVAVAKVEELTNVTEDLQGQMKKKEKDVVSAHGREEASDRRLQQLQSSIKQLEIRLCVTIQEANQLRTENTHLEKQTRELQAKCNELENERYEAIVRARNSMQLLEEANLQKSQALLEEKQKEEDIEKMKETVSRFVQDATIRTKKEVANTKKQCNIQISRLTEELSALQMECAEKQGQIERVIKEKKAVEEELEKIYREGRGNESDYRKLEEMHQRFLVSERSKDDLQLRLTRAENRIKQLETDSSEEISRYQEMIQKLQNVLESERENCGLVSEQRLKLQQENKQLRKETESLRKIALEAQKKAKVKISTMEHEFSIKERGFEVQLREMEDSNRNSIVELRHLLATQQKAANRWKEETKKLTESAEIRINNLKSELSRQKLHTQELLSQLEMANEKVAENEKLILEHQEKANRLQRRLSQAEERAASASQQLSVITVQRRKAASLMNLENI
# UniProt O75056, whole entry, looked up: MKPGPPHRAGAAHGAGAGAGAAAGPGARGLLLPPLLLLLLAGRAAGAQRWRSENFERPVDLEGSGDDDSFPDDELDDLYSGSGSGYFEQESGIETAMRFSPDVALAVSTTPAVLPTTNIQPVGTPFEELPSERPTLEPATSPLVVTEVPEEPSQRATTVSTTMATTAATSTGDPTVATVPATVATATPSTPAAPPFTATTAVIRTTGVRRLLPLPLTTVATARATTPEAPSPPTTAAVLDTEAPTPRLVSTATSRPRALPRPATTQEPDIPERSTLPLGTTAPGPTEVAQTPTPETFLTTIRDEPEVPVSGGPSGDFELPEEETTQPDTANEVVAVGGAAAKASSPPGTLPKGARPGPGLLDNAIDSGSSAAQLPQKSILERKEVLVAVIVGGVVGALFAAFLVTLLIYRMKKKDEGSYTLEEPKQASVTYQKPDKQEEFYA
# UniProt Q8WU76: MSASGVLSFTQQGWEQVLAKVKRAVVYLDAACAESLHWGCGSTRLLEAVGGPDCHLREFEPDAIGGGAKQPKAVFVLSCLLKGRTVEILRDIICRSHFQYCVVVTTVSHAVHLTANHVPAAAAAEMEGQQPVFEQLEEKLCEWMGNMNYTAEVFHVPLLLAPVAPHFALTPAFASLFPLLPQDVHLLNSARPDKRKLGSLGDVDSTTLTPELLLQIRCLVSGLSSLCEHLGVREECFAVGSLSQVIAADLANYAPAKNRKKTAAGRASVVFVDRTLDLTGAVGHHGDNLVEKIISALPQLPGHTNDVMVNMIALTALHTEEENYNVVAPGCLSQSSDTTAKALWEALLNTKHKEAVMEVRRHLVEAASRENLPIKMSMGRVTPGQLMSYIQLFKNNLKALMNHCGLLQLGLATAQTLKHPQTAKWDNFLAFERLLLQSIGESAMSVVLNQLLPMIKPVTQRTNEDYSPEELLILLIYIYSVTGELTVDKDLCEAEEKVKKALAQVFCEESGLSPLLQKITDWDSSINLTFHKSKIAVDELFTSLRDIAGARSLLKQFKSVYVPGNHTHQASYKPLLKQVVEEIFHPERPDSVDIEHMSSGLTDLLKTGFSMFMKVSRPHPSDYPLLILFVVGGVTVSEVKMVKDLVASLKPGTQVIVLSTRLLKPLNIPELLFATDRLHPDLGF
# UniProt Q8IZE3: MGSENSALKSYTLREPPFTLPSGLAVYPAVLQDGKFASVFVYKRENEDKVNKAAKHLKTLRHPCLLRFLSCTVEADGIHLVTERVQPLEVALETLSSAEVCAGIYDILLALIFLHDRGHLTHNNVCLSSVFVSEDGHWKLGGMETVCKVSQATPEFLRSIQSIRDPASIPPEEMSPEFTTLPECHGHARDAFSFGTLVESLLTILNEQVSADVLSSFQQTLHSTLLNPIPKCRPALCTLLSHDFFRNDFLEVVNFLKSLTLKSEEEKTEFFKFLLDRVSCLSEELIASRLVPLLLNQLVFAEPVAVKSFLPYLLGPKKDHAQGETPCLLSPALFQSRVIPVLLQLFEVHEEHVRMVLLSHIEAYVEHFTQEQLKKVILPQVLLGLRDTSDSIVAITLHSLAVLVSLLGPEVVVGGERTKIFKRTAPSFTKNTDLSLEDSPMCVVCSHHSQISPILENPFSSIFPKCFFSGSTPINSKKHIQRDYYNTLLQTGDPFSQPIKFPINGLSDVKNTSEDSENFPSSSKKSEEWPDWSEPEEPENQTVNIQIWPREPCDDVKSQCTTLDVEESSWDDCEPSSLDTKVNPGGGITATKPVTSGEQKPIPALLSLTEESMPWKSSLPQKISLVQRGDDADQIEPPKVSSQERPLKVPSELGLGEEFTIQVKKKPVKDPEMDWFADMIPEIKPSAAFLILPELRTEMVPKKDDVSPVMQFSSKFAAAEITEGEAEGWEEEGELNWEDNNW
# UniProt P23297: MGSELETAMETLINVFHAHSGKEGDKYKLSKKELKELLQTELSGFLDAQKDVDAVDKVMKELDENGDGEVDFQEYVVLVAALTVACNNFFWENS
# UniProt Q86WG5: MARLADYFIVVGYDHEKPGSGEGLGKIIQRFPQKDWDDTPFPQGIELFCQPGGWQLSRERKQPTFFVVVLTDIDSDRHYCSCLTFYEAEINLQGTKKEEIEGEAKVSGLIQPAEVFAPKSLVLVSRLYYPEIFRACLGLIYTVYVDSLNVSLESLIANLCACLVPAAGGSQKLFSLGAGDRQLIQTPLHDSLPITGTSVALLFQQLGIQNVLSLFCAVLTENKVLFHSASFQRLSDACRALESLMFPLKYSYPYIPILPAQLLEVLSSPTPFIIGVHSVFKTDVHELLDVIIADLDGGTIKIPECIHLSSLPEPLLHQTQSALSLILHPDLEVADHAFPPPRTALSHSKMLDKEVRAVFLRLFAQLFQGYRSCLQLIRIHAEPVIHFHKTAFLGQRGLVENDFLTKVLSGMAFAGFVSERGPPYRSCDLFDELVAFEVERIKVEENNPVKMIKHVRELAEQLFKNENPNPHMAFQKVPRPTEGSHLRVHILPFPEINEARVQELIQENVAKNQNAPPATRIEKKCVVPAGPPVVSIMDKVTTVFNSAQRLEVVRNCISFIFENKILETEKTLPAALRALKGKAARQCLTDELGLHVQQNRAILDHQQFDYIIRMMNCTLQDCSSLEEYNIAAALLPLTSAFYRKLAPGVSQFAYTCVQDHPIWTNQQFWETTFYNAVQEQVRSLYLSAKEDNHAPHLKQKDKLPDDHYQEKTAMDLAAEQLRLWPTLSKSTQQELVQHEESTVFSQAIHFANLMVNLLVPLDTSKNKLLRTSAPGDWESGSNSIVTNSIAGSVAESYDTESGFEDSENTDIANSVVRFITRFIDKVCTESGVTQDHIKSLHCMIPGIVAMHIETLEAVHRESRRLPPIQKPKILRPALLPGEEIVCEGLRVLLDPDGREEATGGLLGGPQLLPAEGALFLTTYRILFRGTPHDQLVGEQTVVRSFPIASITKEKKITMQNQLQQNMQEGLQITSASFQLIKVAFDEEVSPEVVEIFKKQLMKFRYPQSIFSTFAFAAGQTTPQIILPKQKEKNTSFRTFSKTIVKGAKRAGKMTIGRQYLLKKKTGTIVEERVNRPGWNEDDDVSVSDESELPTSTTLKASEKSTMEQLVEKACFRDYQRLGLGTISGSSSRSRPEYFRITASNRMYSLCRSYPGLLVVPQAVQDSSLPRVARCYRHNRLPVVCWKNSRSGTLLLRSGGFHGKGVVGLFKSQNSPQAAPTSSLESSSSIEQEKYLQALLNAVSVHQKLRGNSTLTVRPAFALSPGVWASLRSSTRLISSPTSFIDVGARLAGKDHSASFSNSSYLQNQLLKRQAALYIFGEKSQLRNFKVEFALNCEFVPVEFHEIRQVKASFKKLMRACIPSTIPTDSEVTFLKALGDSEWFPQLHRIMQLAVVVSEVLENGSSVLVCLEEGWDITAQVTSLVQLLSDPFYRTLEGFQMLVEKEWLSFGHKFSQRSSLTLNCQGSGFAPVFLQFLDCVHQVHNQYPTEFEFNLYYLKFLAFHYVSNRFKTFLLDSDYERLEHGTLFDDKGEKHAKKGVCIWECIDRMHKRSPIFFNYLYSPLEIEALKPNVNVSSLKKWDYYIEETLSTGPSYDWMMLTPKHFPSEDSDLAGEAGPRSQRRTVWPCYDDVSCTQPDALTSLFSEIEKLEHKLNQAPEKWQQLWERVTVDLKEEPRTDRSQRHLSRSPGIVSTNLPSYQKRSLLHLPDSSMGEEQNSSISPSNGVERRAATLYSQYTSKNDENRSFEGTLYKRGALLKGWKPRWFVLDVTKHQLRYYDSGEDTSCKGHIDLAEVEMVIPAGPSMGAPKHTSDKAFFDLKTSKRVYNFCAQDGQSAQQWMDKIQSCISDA
# UniProt Q9H7N4: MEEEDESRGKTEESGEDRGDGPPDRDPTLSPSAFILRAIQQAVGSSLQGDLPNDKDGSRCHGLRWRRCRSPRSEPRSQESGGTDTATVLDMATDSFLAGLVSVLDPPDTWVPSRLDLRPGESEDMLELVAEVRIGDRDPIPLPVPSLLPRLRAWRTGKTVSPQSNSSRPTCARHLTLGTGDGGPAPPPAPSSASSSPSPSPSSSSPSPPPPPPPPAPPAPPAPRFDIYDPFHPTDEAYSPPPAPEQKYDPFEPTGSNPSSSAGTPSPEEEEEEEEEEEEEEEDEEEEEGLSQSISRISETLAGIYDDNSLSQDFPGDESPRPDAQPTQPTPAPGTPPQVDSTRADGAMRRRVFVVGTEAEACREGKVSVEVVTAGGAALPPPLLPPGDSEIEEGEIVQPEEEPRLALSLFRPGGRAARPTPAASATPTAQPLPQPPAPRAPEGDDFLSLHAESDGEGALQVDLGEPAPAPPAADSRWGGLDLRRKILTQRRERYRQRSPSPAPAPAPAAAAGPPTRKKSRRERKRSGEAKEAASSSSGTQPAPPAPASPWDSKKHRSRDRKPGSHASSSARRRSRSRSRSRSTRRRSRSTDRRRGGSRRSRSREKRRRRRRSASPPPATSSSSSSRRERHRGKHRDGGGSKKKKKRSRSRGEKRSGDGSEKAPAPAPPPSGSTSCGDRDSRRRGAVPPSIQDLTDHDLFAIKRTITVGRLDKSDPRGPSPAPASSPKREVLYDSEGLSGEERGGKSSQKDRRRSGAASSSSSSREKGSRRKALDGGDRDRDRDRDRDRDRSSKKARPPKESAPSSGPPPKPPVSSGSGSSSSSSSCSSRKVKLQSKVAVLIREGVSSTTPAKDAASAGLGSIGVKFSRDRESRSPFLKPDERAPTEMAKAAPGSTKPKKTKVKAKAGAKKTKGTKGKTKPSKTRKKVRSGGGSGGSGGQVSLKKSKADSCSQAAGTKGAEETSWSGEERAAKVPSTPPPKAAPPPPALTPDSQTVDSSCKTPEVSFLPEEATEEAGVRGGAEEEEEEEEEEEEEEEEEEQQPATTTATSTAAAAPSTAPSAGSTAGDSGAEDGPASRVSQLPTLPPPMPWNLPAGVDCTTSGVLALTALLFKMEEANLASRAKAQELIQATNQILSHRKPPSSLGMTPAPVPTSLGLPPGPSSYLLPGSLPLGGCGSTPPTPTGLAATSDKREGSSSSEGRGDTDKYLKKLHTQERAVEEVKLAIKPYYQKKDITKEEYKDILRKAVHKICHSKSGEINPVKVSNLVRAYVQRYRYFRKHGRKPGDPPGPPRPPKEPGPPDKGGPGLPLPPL
# UniProt Q9NPB0: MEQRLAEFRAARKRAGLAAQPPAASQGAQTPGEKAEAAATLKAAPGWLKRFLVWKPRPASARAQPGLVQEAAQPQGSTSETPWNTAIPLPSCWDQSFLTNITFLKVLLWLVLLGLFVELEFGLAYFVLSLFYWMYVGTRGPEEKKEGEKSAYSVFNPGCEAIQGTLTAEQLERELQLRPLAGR
# UniProt Q8N9R8: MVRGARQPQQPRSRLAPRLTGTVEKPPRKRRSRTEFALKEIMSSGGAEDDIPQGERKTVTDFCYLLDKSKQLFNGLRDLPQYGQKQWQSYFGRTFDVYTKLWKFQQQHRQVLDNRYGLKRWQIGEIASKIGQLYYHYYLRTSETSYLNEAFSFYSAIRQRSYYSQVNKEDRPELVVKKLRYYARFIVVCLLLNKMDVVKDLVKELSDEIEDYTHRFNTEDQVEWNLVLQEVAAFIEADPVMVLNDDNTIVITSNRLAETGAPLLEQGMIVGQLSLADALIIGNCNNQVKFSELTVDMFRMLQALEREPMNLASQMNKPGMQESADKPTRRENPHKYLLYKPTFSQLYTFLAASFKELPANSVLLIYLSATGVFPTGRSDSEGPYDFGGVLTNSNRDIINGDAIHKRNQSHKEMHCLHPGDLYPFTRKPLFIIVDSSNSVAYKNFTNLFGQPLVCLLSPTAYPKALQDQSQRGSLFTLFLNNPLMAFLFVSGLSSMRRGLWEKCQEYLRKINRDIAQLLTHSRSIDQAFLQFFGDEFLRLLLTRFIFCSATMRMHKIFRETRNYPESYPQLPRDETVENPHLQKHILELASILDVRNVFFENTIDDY
# How the values were obtained:
# Experiment in all cases: log2 fold change, soluble protein after heating vs DMSO (PISA); higher = thermal stabilisation; K562 cells, 10 uM, 30 min; active = over 0.2 and 3.5 SD of the protein, either way, in both replicates (recomputed)
# [1] = compound: NC(=O)Nc1cc(-c2cccc(F)c2)sc1C(=O)N[C@H]1CCCNC1
# Outline: (§1)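 K562 cells at 2×10^6 cells/mL were given 10 μM compound for 30 min. Aliquots then went through 3 min of heating across 48°C-58°C, were pooled, and were extracted in PBS with 0.5% NP-40 at 4°C, and the supernatant after 21,000xg for 90 min was quantified by TMTpro 16plex LC-MS/MS with channel sums equalised. Thermal stability relative to control samples, from duplicates, is given as log2 fold change.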
# [2] = compound: NC1(c2ccc(-c3nc4ccn5c(=O)[nH]nc5c4cc3-c3ccccc3)cc2)CCC1
# Outline: as §1
# [3] = compound: NCC(=O)Nc1ccc(-n2nc(C(F)(F)F)cc2-c2ccc3c(ccc4ccccc43)c2)cc1
# Outline: as §1
# [4] = compound: Nc1ccccc1NC(=O)c1ccc(CNC(=O)OCc2cccnc2)cc1 [entinostat]
# Outline: as §1
# [5] = compound: O=C(CCCCCCC(=O)Nc1ccccc1)NO [vorinostat]
# Outline: as §1
# [6] = compound: O=C(O)c1ccc2c(c1)nc(Nc1cccc(Cl)c1)c1ccncc12 [silmitasertib]
# Outline: as §1
# [7] = compound: NC(=O)c1cnc(N[C@@H]2CCCC[C@@H]2N)nc1Nc1cccc(-n2nccn2)c1
# Outline: as §1
# [8] = compound: O=C(CCCCCCNC(=O)c1cnc(N(c2ccccc2)c2ccccc2Cl)nc1)NO [citarinostat]
# Outline: as §1
# [9] = compound: O=C1NC(=O)C(c2cnc3ccccn23)=C1c1cn2c3c(cc(F)cc13)CN(C(=O)N1CCCCC1)CC2
# Outline: as §1
# [10] = compound: c1cc(OCCN2CCCCC2)cc(-c2n[nH]c3ccc(-c4nnc[nH]4)cc23)c1
# Outline: as §1
# [11] = compound: c1cn2cc(-c3ccc4cn[nH]c4c3)nc(Nc3ccc(N4CCOCC4)cc3)c2n1 [entospletinib]
# Outline: as §1
target,measurement,setting,value
SCLT1 (UniProt Q96NL6),log2 fold change,[1],inactive: -0.007
same,log2 fold change,[2],inactive: -0.057
same,log2 fold change,[3],inactive: -0.077
same,log2 fold change,[4],inactive: -0.023
same,log2 fold change,[5],inactive: 0.064
same,log2 fold change,[6],inactive: -0.01
RTN4 (UniProt Q9NQC3),log2 fold change,[1],inactive: 0.008
same,log2 fold change,[7],inactive: -0.006
same,log2 fold change,[2],inactive: -0.021
same,log2 fold change,[3],inactive: -0.029
same,log2 fold change,[4],inactive: -0.016
same,log2 fold change,[5],inactive: -0.018
same,log2 fold change,[8],inactive: 0.058
same,log2 fold change,[6],inactive: 0.01
same,log2 fold change,[9],inactive: -0.019
same,log2 fold change,[10],inactive: -0.068
same,log2 fold change,[11],inactive: -0.047
SDAD1 (UniProt Q9NVU7),log2 fold change,[1],inactive: 0.009
same,log2 fold change,[7],inactive: 0.104
same,log2 fold change,[2],inactive: -0.111
same,log2 fold change,[4],inactive: -0.03
same,log2 fold change,[5],inactive: 0.228
same,log2 fold change,[8],inactive: 0.033
same,log2 fold change,[6],inactive: 0.035
same,log2 fold change,[9],inactive: -0.133
same,log2 fold change,[10],inactive: -0.103
same,log2 fold change,[11],inactive: -0.137
SAP30 (UniProt O75446),log2 fold change,[1],inactive: 0.043
same,log2 fold change,[7],inactive: 0.032
same,log2 fold change,[2],inactive: 0.044
same,log2 fold change,[3],inactive: 0.287
same,log2 fold change,[4],inactive: 0.165
same,log2 fold change,[5],inactive: 0.307
same,log2 fold change,[6],inactive: 0.106
same,log2 fold change,[9],inactive: 0.047
SDC3 (UniProt O75056),log2 fold change,[1],inactive: 0.044
same,log2 fold change,[7],inactive: -0.016
same,log2 fold change,[3],inactive: 0.026
same,log2 fold change,[4],inactive: 0.035
same,log2 fold change,[5],inactive: 0.211
same,log2 fold change,[8],inactive: 0.354
same,log2 fold change,[9],inactive: 0.09
same,log2 fold change,[10],inactive: 0.174
same,log2 fold change,[11],active: -0.853
RTN3 isoform 5 (UniProt O95197),log2 fold change,[1],inactive: 0.134
same,log2 fold change,[7],inactive: -0.021
same,log2 fold change,[2],inactive: 0.047
same,log2 fold change,[3],inactive: 0.022
same,log2 fold change,[4],inactive: -0.14
same,log2 fold change,[8],inactive: -0.212
same,log2 fold change,[6],inactive: -0.15
same,log2 fold change,[9],inactive: 0.018
same,log2 fold change,[10],inactive: -0.072
same,log2 fold change,[11],inactive: 0.033
RSBN1L (UniProt Q6PCB5),log2 fold change,[1],inactive: 0.13
same,log2 fold change,[7],inactive: 0.029
same,log2 fold change,[2],inactive: 0.205
same,log2 fold change,[3],inactive: 0.19
same,log2 fold change,[4],inactive: -0.02
same,log2 fold change,[5],inactive: 0.056
same,log2 fold change,[8],inactive: -0.035
same,log2 fold change,[6],inactive: 0.26
same,log2 fold change,[9],inactive: 0.198
same,log2 fold change,[10],inactive: -0.09
same,log2 fold change,[11],inactive: 0.067
SCFD2 (UniProt Q8WU76),log2 fold change,[1],inactive: 0.058
same,log2 fold change,[7],inactive: 0.012
same,log2 fold change,[2],inactive: -0.079
same,log2 fold change,[3],inactive: 0.034
same,log2 fold change,[4],inactive: 0.027
same,log2 fold change,[5],inactive: 0.085
same,log2 fold change,[8],inactive: 0.061
same,log2 fold change,[6],inactive: 0.071
same,log2 fold change,[9],inactive: -0.003
same,log2 fold change,[10],inactive: -0.197
same,log2 fold change,[11],inactive: 0.152
SDF2 (UniProt Q99470),log2 fold change,[5],inactive: -0.057
same,log2 fold change,[9],inactive: 0.007
RXRB isoform 3 (UniProt P28702),log2 fold change,[1],inactive: -0.167
same,log2 fold change,[4],inactive: -0.014
same,log2 fold change,[9],inactive: -0.208
SCRIB isoform 3 (UniProt Q14160),log2 fold change,[2],inactive: 0.158
same,log2 fold change,[5],inactive: 0.005
same,log2 fold change,[6],inactive: 0.372
SEC22A (UniProt Q96IW7),log2 fold change,[7],inactive: -0.029
same,log2 fold change,[5],inactive: 0.16
SBSN (UniProt Q6UWP8),log2 fold change,[7],inactive: 0.541
same,log2 fold change,[2],inactive: 0.152
same,log2 fold change,[8],inactive: -0.288
same,log2 fold change,[6],inactive: 0.226
same,log2 fold change,[10],inactive: 0.154
same,log2 fold change,[11],inactive: -0.052
SEC14L1 isoform 2 (UniProt Q92503),log2 fold change,[1],inactive: -0.025
same,log2 fold change,[3],inactive: 0.081
same,log2 fold change,[4],inactive: -0.163
same,log2 fold change,[5],inactive: -0.015
same,log2 fold change,[8],inactive: -0.214
same,log2 fold change,[9],inactive: -0.07
same,log2 fold change,[10],inactive: -0.191
same,log2 fold change,[11],inactive: 0.172
"RTN4, A0A0U1RQR6",log2 fold change,[9],inactive: -0.19
SCYL3 isoform 2 (UniProt Q8IZE3),log2 fold change,[7],inactive: 0.001
same,log2 fold change,[2],inactive: -0.185
same,log2 fold change,[3],inactive: -0.055
same,log2 fold change,[5],inactive: 0.031
same,log2 fold change,[8],inactive: -0.047
same,log2 fold change,[6],inactive: 0.021
same,log2 fold change,[9],inactive: -0.053
same,log2 fold change,[10],inactive: 0.173
SAFB2 (UniProt K7EQU4),log2 fold change,[9],inactive: 0.007
SAMD4A (UniProt Q9UPU9),log2 fold change,[9],inactive: -0.216
RWDD3 (UniProt Q9Y3V2),log2 fold change,[1],inactive: -0.075
same,log2 fold change,[4],inactive: 0.005
S100A1 (UniProt P23297),log2 fold change,[1],inactive: 0.122
same,log2 fold change,[4],inactive: -0.102
same,log2 fold change,[9],inactive: -0.094
SAMD4B (UniProt Q5PRF9),log2 fold change,[1],inactive: -0.459
same,log2 fold change,[4],inactive: 0.133
same,log2 fold change,[5],inactive: -0.069
same,log2 fold change,[9],inactive: 0.067
RUBCN (UniProt Q92622),log2 fold change,[3],inactive: -0.208
SCGB2A1 (UniProt O75556),log2 fold change,[2],inactive: 0.07
same,log2 fold change,[6],inactive: 0.548
SBF2 (UniProt Q86WG5),log2 fold change,[5],inactive: 0.08
same,log2 fold change,[9],inactive: -0.07
RTN4 isoform 5 (UniProt Q9NQC3),log2 fold change,[7],inactive: -0.022
same,log2 fold change,[3],inactive: -0.052
same,log2 fold change,[5],inactive: -0.079
same,log2 fold change,[8],inactive: -0.028
same,log2 fold change,[9],inactive: -0.117
same,log2 fold change,[10],inactive: 0.005
same,log2 fold change,[11],inactive: 0.077
S100A16 (UniProt Q96FQ6),log2 fold change,[2],inactive: -0.012
same,log2 fold change,[3],inactive: -0.17
same,log2 fold change,[8],inactive: -0.122
same,log2 fold change,[6],inactive: 0.086
same,log2 fold change,[9],inactive: -0.079
same,log2 fold change,[10],inactive: 0.51
same,log2 fold change,[11],inactive: -0.173
SAP130 isoform 3 (UniProt Q9H0E3),log2 fold change,[7],inactive: -0.077
same,log2 fold change,[3],inactive: -0.104
same,log2 fold change,[5],inactive: 0.058
SCN4A (UniProt P35499),log2 fold change,[7],inactive: -0.271
same,log2 fold change,[2],inactive: 0.098
same,log2 fold change,[6],inactive: 0.039
SDCBP isoform 2 (UniProt O00560),log2 fold change,[1],inactive: -0.038
same,log2 fold change,[2],inactive: -0.286
same,log2 fold change,[4],inactive: 0.004
same,log2 fold change,[5],inactive: -0.01
same,log2 fold change,[8],inactive: 0.024
same,log2 fold change,[6],inactive: 0.124
same,log2 fold change,[9],inactive: -0.041
same,log2 fold change,[10],inactive: 0.097
"SDHB, A0A087WXX8",log2 fold change,[7],inactive: -0.201
same,log2 fold change,[2],inactive: 0.136
same,log2 fold change,[3],inactive: -0.039
same,log2 fold change,[5],inactive: -0.01
same,log2 fold change,[6],inactive: -0.204
SATB2 (UniProt Q9UPW6),log2 fold change,[5],inactive: 0.047
SCAF1 (UniProt Q9H7N4),log2 fold change,[1],inactive: -0.147
same,log2 fold change,[4],inactive: -0.273
S100A4 (UniProt P26447),log2 fold change,[7],inactive: 0.156
same,log2 fold change,[8],inactive: 0.039
same,log2 fold change,[10],inactive: -0.142
same,log2 fold change,[11],inactive: -0.226
RTL10 (UniProt Q7L3V2),log2 fold change,[7],inactive: -0.187
same,log2 fold change,[2],inactive: 0.091
same,log2 fold change,[3],inactive: -0.134
same,log2 fold change,[5],inactive: 0.003
same,log2 fold change,[6],inactive: -0.156
same,log2 fold change,[9],inactive: -0.124
SAYSD1 (UniProt Q9NPB0),log2 fold change,[1],inactive: -0.058
same,log2 fold change,[2],inactive: 0.368
same,log2 fold change,[4],inactive: 0.139
same,log2 fold change,[8],inactive: 0.08
same,log2 fold change,[6],inactive: 0.049
same,log2 fold change,[9],inactive: 0.047
same,log2 fold change,[10],inactive: -0.05
same,log2 fold change,[11],inactive: -0.197
SCAMP3 isoform 2 (UniProt O14828),log2 fold change,[2],inactive: -0.031
same,log2 fold change,[3],inactive: -0.114
same,log2 fold change,[8],inactive: 0.064
same,log2 fold change,[6],inactive: -0.129
same,log2 fold change,[9],inactive: 0.01
same,log2 fold change,[10],inactive: 0.116
same,log2 fold change,[11],inactive: 0.18
S100A2 (UniProt P29034),log2 fold change,[7],inactive: -0.043
same,log2 fold change,[2],inactive: 0.171
same,log2 fold change,[3],inactive: -0.149
same,log2 fold change,[8],inactive: 0.067
same,log2 fold change,[6],inactive: -0.124
same,log2 fold change,[10],inactive: 0.138
same,log2 fold change,[11],inactive: 0
S100A14 (UniProt Q9HCY8),log2 fold change,[7],inactive: 0.257
same,log2 fold change,[2],inactive: 0.025
same,log2 fold change,[3],inactive: 0.078
same,log2 fold change,[8],inactive: -0.138
same,log2 fold change,[6],inactive: -0.111
same,log2 fold change,[10],inactive: 0.585
same,log2 fold change,[11],inactive: -0.061
RXRG (UniProt P48443),log2 fold change,[5],inactive: -0.028
RTL8C (UniProt A6ZKI3),log2 fold change,[3],inactive: -0.014
same,log2 fold change,[5],inactive: 0.103
same,log2 fold change,[8],inactive: 0.034
same,log2 fold change,[9],inactive: 0.066
same,log2 fold change,[10],inactive: -0.076
same,log2 fold change,[11],inactive: 0.005
SCAI isoform 2 (UniProt Q8N9R8),log2 fold change,[7],inactive: 0.036
same,log2 fold change,[3],inactive: 0.06
same,log2 fold change,[9],inactive: -0.212

# 6 records picked at random from the list so far:
target,measurement,setting,value
SAP130 isoform 3 (UniProt Q9H0E3),log2 fold change,[7],inactive: -0.077
SDC3 (UniProt O75056),log2 fold change,[9],inactive: 0.09
SDAD1 (UniProt Q9NVU7),log2 fold change,[1],inactive: 0.009
RXRG (UniProt P48443),log2 fold change,[5],inactive: -0.028
SCLT1 (UniProt Q96NL6),log2 fold change,[1],inactive: -0.007
RTL10 (UniProt Q7L3V2),log2 fold change,[7],inactive: -0.187

# Quoted from the listing (seven entries):
target,measurement,setting,value
SEC14L1 isoform 2 (UniProt Q92503),log2 fold change,[4],inactive: -0.163
same,log2 fold change,[5],inactive: -0.015
same,log2 fold change,[8],inactive: -0.214
same,log2 fold change,[9],inactive: -0.07
same,log2 fold change,[10],inactive: -0.191
same,log2 fold change,[11],inactive: 0.172
"RTN4, A0A0U1RQR6",log2 fold change,[9],inactive: -0.19
